In paper PMC10117376:
No constants are given. Whether binding was seen depends on the method and setting. In cells and extracts the contact can be indirect. Here binding means that the protein was enriched with, or labelled near, the bait; the list need not be complete.

By UniProt entry, the sequences of proteins in these tests, tags left out.
UniProt Q16650: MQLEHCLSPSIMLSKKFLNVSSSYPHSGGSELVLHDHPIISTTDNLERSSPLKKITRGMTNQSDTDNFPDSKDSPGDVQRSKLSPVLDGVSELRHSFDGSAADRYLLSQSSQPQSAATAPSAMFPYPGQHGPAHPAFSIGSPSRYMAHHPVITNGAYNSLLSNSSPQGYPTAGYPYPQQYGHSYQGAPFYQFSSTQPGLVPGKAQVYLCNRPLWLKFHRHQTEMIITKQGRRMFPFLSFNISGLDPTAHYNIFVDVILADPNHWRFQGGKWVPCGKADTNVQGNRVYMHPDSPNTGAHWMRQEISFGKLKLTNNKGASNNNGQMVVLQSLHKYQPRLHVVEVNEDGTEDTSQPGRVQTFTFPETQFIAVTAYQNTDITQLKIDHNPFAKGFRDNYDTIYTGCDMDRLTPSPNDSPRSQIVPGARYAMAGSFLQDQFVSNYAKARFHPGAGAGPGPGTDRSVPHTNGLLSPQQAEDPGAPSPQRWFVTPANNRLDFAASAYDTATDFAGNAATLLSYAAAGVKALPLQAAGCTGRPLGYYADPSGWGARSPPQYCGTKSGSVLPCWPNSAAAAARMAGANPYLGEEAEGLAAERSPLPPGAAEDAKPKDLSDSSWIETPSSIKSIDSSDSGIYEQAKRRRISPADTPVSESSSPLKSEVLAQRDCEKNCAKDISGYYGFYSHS

target: 2×FLAG/V5-TBR1 (human) (UniProt Q16650); experiment: affinity purification with mass spectrometry; nuclear extract of HEK293 cells stably expressing 2xFLAG/V5-TBR1 on anti-FLAG M2 agarose beads, 3 h at 4°C, buffer C-100 (20 mM HEPES pH 7.6, 20% glycerol, 100 mM KCl, 1.5 mM MgCl2, 0.2 mM EDTA) with benzonase and ethidium bromide; eluted with FLAG-tripeptide; two independent purifications (AP1, AP2); untransfected cells as control

Binder	binding
ZNF687 (protein, UniProt Q8N1G0 1-1237) MGDMKTPDFDDLLAAFDIPDIDANEAIHSGPEENEGPGGPGKPEPGVGSESEDTAAASAGDGPGVPAQASDHGLPPPDISVVSVIVKNTVCPEQSEALAGGSAGDGAQAAGVTKEGPVGPHRMQNGFGSPEPSLPGTPHSPAPPSGGTWKEKGMEGKTPLDLFAHFGPEPGDHSDPLPPSAPSPTREGALTPPPFPSSFELAQENGPGMQPPVSSPPLGALKQESCSPHHPQVLAQQGSGSSPKATDIPASASPPPVAGVPFFKQSPGHQSPLASPKVPVCQPLKEEDDDEGPVDKSSPGSPQSPSSGAEAADEDSNDSPASSSSRPLKVRIKTIKTSCGNITRTVTQVPSDPDPPAPLAEGAFLAEASLLKLSPATPTSEGPKVVSVQLGDGTRLKGTVLPVATIQNASTAMLMAASVARKAVVLPGGTATSPKMIAKNVLGLVPQALPKADGRAGLGTGGQKVNGASVVMVQPSKTATGPSTGGGTVISRTQSSLVEAFNKILNSKNLLPAYRPNLSPPAEAGLALPPTGYRCLECGDAFSLEKSLARHYDRRSMRIEVTCNHCARRLVFFNKCSLLLHAREHKDKGLVMQCSHLVMRPVALDQMVGQPDITPLLPVAVPPVSGPLALPALGKGEGAITSSAITTVAAEAPVLPLSTEPPAAPATSAYTCFRCLECKEQCRDKAGMAAHFQQLGPPAPGATSNVCPTCPMMLPNRCSFSAHQRMHKNRPPHVCPECGGNFLQANFQTHLREACLHVSRRVGYRCPSCSVVFGGVNSIKSHIQTSHCEVFHKCPICPMAFKSGPSAHAHLYSQHPSFQTQQAKLIYKCAMCDTVFTHKPLLSSHFDQHLLPQRVSVFKCPSCPLLFAQKRTMLEHLKNTHQSGRLEETAGKGAGGALLTPKTEPEELAVSQGGAAPATEESSSSSEEEEVPSSPEPPRPAKRPRRELGSKGLKGGGGGPGGWTCGLCHSWFPERDEYVAHMKKEHGKSVKKFPCRLCERSFCSAPSLRRHVRVNHEGIKRVYPCRYCTEGKRTFSSRLILEKHVQVRHGLQLGAQSPGRGTTLARGSSARAQGPGRKRRQSSDSCSEEPDSTTPPAKSPRGGPGSGGHGPLRYRSSSSTEQSLMMGLRVEDGAQQCLDCGLCFASPGSLSRHRFISHKKRRGVGKASALGLGDGEEEAPPSRSDPDGGDSPLPASGGPLTCKVCGKSCDSPLNLKTHFRTHGMAFIRARQGAVGDN	binds
NR2F2 (endogenous) (protein, UniProt P24468 1-414) MAMVVSTWRDPQDEVPGSQGSQASQAPPVPGPPPGAPHTPQTPGQGGPASTPAQTAAGGQGGPGGPGSDKQQQQQHIECVVCGDKSSGKHYGQFTCEGCKSFFKRSVRRNLSYTCRANRNCPIDQHHRNQCQYCRLKKCLKVGMRREAVQRGRMPPTQPTHGQFALTNGDPLNCHSYLSGYISLLLRAEPYPTSRFGSQCMQPNNIMGIENICELAARMLFSAVEWARNIPFFPDLQITDQVALLRLTWSELFVLNAAQCSMPLHVAPLLAAAGLHASPMSADRVVAFMDHIRIFQEQVEKLKALHVDSAEYSCLKAIVLFTSDACGLSDVAHVESLQEKSQCALEEYVRSQYPNQPTRFGKLLLRLPSLRTVSSSVIEQLFFVRLVGKTPIETLIRDMLLSGSSFNWPYMAIQ	binds
CTNND1 (endogenous) (protein, UniProt O60716 1-968) MDDSEVESTASILASVKEQEAQFEKLTRALEEERRHVSAQLERVRVSPQDANPLMANGTLTRRHQNGRFVGDADLERQKFSDLKLNGPQDHSHLLYSTIPRMQEPGQIVETYTEEDPEGAMSVVSVETSDDGTTRRTETTVKKVVKTVTTRTVQPVAMGPDGLPVDASSVSNNYIQTLGRDFRKNGNGGPGPYVGQAGTATLPRNFHYPPDGYSRHYEDGYPGGSDNYGSLSRVTRIEERYRPSMEGYRAPSRQDVYGPQPQVRVGGSSVDLHRFHPEPYGLEDDQRSMGYDDLDYGMMSDYGTARRTGTPSDPRRRLRSYEDMIGEEVPSDQYYWAPLAQHERGSLASLDSLRKGGPPPPNWRQPELPEVIAMLGFRLDAVKSNAAAYLQHLCYRNDKVKTDVRKLKGIPVLVGLLDHPKKEVHLGACGALKNISFGRDQDNKIAIKNCDGVPALVRLLRKARDMDLTEVITGTLWNLSSHDSIKMEIVDHALHALTDEVIIPHSGWEREPNEDCKPRHIEWESVLTNTAGCLRNVSSERSEARRKLRECDGLVDALIFIVQAEIGQKDSDSKLVENCVCLLRNLSYQVHREIPQAERYQEAAPNVANNTGPHAASCFGAKKGKDEWFSRGKKPIEDPANDTVDFPKRTSPARGYELLFQPEVVRIYISLLKESKTPAILEASAGAIQNLCAGRWTYGRYIRSALRQEKALSAIADLLTNEHERVVKAASGALRNLAVDARNKELIGKHAIPNLVKNLPGGQQNSSWNFSEDTVISILNTINEVIAENLEAAKKLRETQGIEKLVLINKSGNRSEKEVRAAALVLQTIWGYKELRKPLEKEGWKKSDFQVNLNNASRSQSSHSYDDSTLPLIDRNQKSDKKPDREEIQMSNMGSNTKSLDNNYSTPNERGDHNRTLDRSGDLGDMEPLKGTTPLMQDEGQESLEEELDVLVLDDEGGQVSYPSMQKI	binds

Second part, the binder after the results:

binding	Binder
binds	ZNF592 (protein, UniProt Q92610 1-1267) MGDMKTPDFDDLLAAFDIPDPTSLDAKEAIQTPSEENESPLKPPGICMDESVSLSHSGSAPDVPAVSVIVKNTSRQESFEAEKDHITPSLLHNGFRGSDLPPDPHNCGKFDSTFMNGDSARSFPGKLEPPKSEPLPTFNQFSPISSPEPEDPIKDNGFGIKPKHSDSYFPPPLGCGAVGGPVLEALAKFPVPELHMFDHFCKKEPKPEPLPLGSQQEHEQSGQNTVEPHKDPDATRFFGEALEFNSHPSNSIGESKGLARELGTCSSVPPRQRLKPAHSKLSSCVAALVALQAKRVASVTKEDQPGHTKDLSGPTKESSKGSPKMPKSPKSPRSPLEATRKSIKPSDSPRSICSDSSSKGSPSVAASSPPAIPKVRIKTIKTSSGEIKRTVTRILPDPDDPSKSPVGSPLGSAIAEAPSEMPGDEVPVEEHFPEAGTNSGSPQGARKGDESMTKASDSSSPSCSSGPRVPKGAAPGSQTGKKQQSTALQASTLAPANLLPKAVHLANLNLVPHSVAASVTAKSSVQRRSQPQLTQMSVPLVHQVKKAAPLIVEVFNKVLHSSNPVPLYAPNLSPPADSRIHVPASGYCCLECGDAFALEKSLSQHYGRRSVHIEVLCTLCSKTLLFFNKCSLLRHARDHKSKGLVMQCSQLLVKPISADQMFVSAPVNSTAPAAPAPSSSPKHGLTSGSASPPPPALPLYPDPVRLIRYSIKCLECHKQMRDYMVLAAHFQRTTEETEGLTCQVCQMLLPNQCSFCAHQRIHAHKSPYCCPECGVLCRSAYFQTHVKENCLHYARKVGYRCIHCGVVHLTLALLKSHIQERHCQVFHKCAFCPMAFKTASSTADHSATQHPTQPHRPSQLIYKCSCEMVFNKKRHIQQHFYQNVSKTQVGVFKCPECPLLFVQKPELMQHVKSTHGVPRNVDELSSLQSSADTSSSRPGSRVPTEPPATSVAARSSSLPSGRWGRPEAHRRVEARPRLRNTGWTCQECQEWVPDRESYVSHMKKSHGRTLKRYPCRQCEQSFHTPNSLRKHIRNNHDTVKKFYTCGYCTEDSPSFPRPSLLESHISLMHGIRNPDLSQTSKVKPPGGHSPQVNHLKRPVSGVGDAPGTSNGATVSSTKRHKSLFQCAKCSFATDSGLEFQSHIPQHQVDSSTAQCLLCGLCYTSASSLSRHLFIVHKVRDQEEEEEEEAAAAEMAVEVAEPEEGSGEEVPMETRENGLEECAGEPLSADPEARRLLGPAPEDDGGHNDHSQPQASQDQDSHTLSPQV
binds	POGZ (protein, UniProt Q7Z3K3 1-1410) MADTDLFMECEEEELEPWQKISDVIEDSVVEDYNSVDKTTTVSVSQQPVSAPVPIAAHASVAGHLSTSTTVSSSGAQNSDSTKKTLVTLIANNNAGNPLVQQGGQPLILTQNPAPGLGTMVTQPVLRPVQVMQNANHVTSSPVASQPIFITTQGFPVRNVRPVQNAMNQVGIVLNVQQGQTVRPITLVPAPGTQFVKPTVGVPQVFSQMTPVRPGSTMPVRPTTNTFTTVIPATLTIRSTVPQSQSQQTKSTPSTSTTPTATQPTSLGQLAVQSPGQSNQTTNPKLAPSFPSPPAVSIASFVTVKRPGVTGENSNEVAKLVNTLNTIPSLGQSPGPVVVSNNSSAHGSQRTSGPESSMKVTSSIPVFDLQDGGRKICPRCNAQFRVTEALRGHMCYCCPEMVEYQKKGKSLDSEPSVPSAAKPPSPEKTAPVASTPSSTPIPALSPPTKVPEPNENVGDAVQTKLIMLVDDFYYGRDGGKVAQLTNFPKVATSFRCPHCTKRLKNNIRFMNHMKHHVELDQQNGEVDGHTICQHCYRQFSTPFQLQCHLENVHSPYESTTKCKICEWAFESEPLFLQHMKDTHKPGEMPYVCQVCQYRSSLYSEVDVHFRMIHEDTRHLLCPYCLKVFKNGNAFQQHYMRHQKRNVYHCNKCRLQFLFAKDKIEHKLQHHKTFRKPKQLEGLKPGTKVTIRASRGQPRTVPVSSNDTPPSALQEAAPLTSSMDPLPVFLYPPVQRSIQKRAVRKMSVMGRQTCLECSFEIPDFPNHFPTYVHCSLCRYSTCCSRAYANHMINNHVPRKSPKYLALFKNSVSGIKLACTSCTFVTSVGDAMAKHLVFNPSHRSSSILPRGLTWIAHSRHGQTRDRVHDRNVKNMYPPPSFPTNKAATVKSAGATPAEPEELLTPLAPALPSPASTATPPPTPTHPQALALPPLATEGAECLNVDDQDEGSPVTQEPELASGGGGSGGVGKKEQLSVKKLRVVLFALCCNTEQAAEHFRNPQRRIRRWLRRFQASQGENLEGKYLSFEAEEKLAEWVLTQREQQLPVNEETLFQKATKIGRSLEGGFKISYEWAVRFMLRHHLTPHARRAVAHTLPKDVAENAGLFIDFVQRQIHNQDLPLSMIVAIDEISLFLDTEVLSSDDRKENALQTVGTGEPWCDVVLAILADGTVLPTLVFYRGQMDQPANMPDSILLEAKESGYSDDEIMELWSTRVWQKHTACQRSKGMLVMDCHRTHLSEEVLAMLSASSTLPAVVPAGCSSKIQPLDVCIKRTVKNFLHKKWKEQAREMADTACDSDVLLQLVLVWLGEVLGVIGDCPELVQRSFLVASVLPGPDGNINSPTRNADMQEELIASLEEQLKLSGEHSESSTPRPRSSPEETIEPESLHQLFEGESETESFYGFEEADLDLMEI
